42 sequences from PMC7819943, “Rice protein-binding microarrays: a tool to detect cis-acting elements near promoter regions in rice” can be followed below.

This is one part of the list.

The target of the test is T1, OsSMF1 (Oryza sativa, UniProt Q6ZLB0 1-436).
T1 sequence: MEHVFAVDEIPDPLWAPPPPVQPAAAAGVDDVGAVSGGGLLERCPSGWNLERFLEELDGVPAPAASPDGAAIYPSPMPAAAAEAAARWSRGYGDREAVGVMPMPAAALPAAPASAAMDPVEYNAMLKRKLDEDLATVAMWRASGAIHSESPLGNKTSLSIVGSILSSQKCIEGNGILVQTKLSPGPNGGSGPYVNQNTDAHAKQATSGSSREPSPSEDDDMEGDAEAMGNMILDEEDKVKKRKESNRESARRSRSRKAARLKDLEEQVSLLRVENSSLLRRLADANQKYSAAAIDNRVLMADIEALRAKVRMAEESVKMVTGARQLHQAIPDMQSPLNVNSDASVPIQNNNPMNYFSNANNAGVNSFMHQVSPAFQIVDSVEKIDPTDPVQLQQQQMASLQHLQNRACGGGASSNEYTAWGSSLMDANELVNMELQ
Put plainly: protein-binding microarray (RPBM); PBS, 2% BSA, 51.3 ng/ul salmon testes DNA, 50 uM zinc acetate, 200 nM TF, 25 C, 1 h; high values mean tight binding. Conditions: protein: recombinant; tags: N-terminal polyhistidine and DsRed monomer fusion (pET32a); chain copies: 2; label: CyDye5-dUTP incorporated in the synthesized complementary strand; 3' TTTTT single-stranded linker to array surface; dsDNA, one strand shown. Summed up:
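A custom Agilent array was converted to double-stranded form by primer extension with Cy5-dUTP and blocked with 2% BSA. Protein at 200 nM in PBS with 2% BSA, salmon testes DNA and 50 µM zinc acetate was applied for 1 h at 25 °C, followed by washing. The proteins were polyhistidine–DsRed N-terminal fusions of transcription factors, expressed in E. coli BL21-CodonPlus and Ni–NTA-purified. The binding signal is per-feature fluorescence intensity (arbitrary units) from an Axon 4000B scanner.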
Regarding “CGCCTTCCTCCCAATCTTGTTGTTTCGGCGGCGGCGGCGGCGGAGTCACCTAGTGCAG”, the binding signal was 3420 fluorescence intensity (a.u.).

Regarding “AGCTGGTAGCTGCTGCCGGTGGTGCCGATCGACTGCCGGACGGAGTCACCTAGTGCAG”, the binding signal is 4990 fluorescence intensity (a.u.).

Consider “CCCGGGAGATGCCATGCTGGCAGGTGGGCCCCACGCCAGGCGGAGTCACCTAGTGCAG”, for which the binding signal is 5050 fluorescence intensity (a.u.).

In the case of “TGTCTCGTTTGATTCGACTGTGACTGATGAAATCGTGGTTCGGAGTCACCTAGTGCAG”, the binding signal was 3260 fluorescence intensity (a.u.).

For the sequence “CACCACTGACCACACCCTCTCGTCCGCGTGACATCTGGATCGGAGTCACCTAGTGCAG”, the binding signal is 3940 fluorescence intensity (a.u.).

“AACCACGCTTTCCTATGGCCCACCTGTCATGTAATCAGTTCGGAGTCACCTAGTGCAG”: the binding signal was 5290 fluorescence intensity (a.u.).

With “GCAGCCACGTCTCCTCCACCACCTCGTCTCCCTCTCGAGACGGAGTCACCTAGTGCAG”, the binding signal is 4450 fluorescence intensity (a.u.).

In the case of “TAATGGGCGGTAGTAGATCCACGTAGGCGCGCGTAATTGGCGGAGTCACCTAGTGCAG”, the binding signal was 12700 fluorescence intensity (a.u.).

For “TTTTCATATTGAAATGGTGTGTAAGCGCCACATAGGCGCTCGGAGTCACCTAGTGCAG”, the binding signal is 6290 fluorescence intensity (a.u.).

On to “TCAGAACAGTACACCCGTCACAGTTATTTGATCGCCTGTGCGGAGTCACCTAGTGCAG”, for which the binding signal is 3770 fluorescence intensity (a.u.).

For the sequence “GTCGATCCATGTCACTGACCTGCACGTTTAATTATAGCCACGGAGTCACCTAGTGCAG”, the binding signal is 5380 fluorescence intensity (a.u.).

On to “TCGGTGCCAAATTAGGCTGACAAGGAGAAAATTTCATGCCCGGAGTCACCTAGTGCAG”, for which the binding signal was 3360 fluorescence intensity (a.u.).

With “GAAGTGTTAGCTAGCTAGGCATGTAGACACCTGGCATGGCCGGAGTCACCTAGTGCAG”, the binding signal was 3360 fluorescence intensity (a.u.).

Regarding “CGATGAGGAGGAGGAGGGGCAACAGTGTTAGGGTGGATTTCGGAGTCACCTAGTGCAG”, the binding signal is 3140 fluorescence intensity (a.u.).

Consider “CTAATTACATATGTAAGTGGGGTGTAAATGAGGTGTAACTCGGAGTCACCTAGTGCAG”, for which the binding signal is 5770 fluorescence intensity (a.u.).

Regarding “GGGAGTACATTTCTATTAGTTGCCAGATGAGAATTTGCAACGGAGTCACCTAGTGCAG”, the binding signal was 3470 fluorescence intensity (a.u.).

“ACCTGGGAGCTTGCTGACCTCCCTCGTGGTCACCGCGCGACGGAGTCACCTAGTGCAG”: the binding signal was 3340 fluorescence intensity (a.u.).

As to “TAGATTGCTATCTTTCCCGGGTTTCTCCCCGTCCGCGCGGCGGAGTCACCTAGTGCAG”, the binding signal was 21900 fluorescence intensity (a.u.).

Take “GCCGCAACGCATCCGTCGGCGCTGCTCCCGACTGAAGATTCGGAGTCACCTAGTGCAG”: the binding signal is 3500 fluorescence intensity (a.u.).

With “AGGTTTGTTATGGACCTATTCGTAAACAAATAGGTCCAACCGGAGTCACCTAGTGCAG”, the binding signal is 31800 fluorescence intensity (a.u.).

For “CGTTCCCCTCCGCCGCTTGCGTGGACTAGTGGACGCCCACCGGAGTCACCTAGTGCAG”, the binding signal is 7820 fluorescence intensity (a.u.).

With “CTGCGGTTGCATTGCATGGAGATGGACCCTCAACCAGCTACGGAGTCACCTAGTGCAG”, the binding signal was 3700 fluorescence intensity (a.u.).

For the sequence “TTGCTTGTGTGCTGTTGTCGTGCGTGACTAATGTACCAGCCGGAGTCACCTAGTGCAG”, the binding signal is 3760 fluorescence intensity (a.u.).

For the sequence “ACCCGGGCCAGCTCACCGCCAGCCCAAACCCCGCAGCCGACGGAGTCACCTAGTGCAG”, the binding signal was 3970 fluorescence intensity (a.u.).

On to “CCCTGCCCGAAACGTGTCACGGCCCATCTCGTGCTCGAAACGGAGTCACCTAGTGCAG”, for which the binding signal is 4560 fluorescence intensity (a.u.).

For the sequence “CAAGCATGTGATGTGAATGGGCAGTCGACGTGGACGGCTACGGAGTCACCTAGTGCAG”, the binding signal is 7550 fluorescence intensity (a.u.).

On to “AATCATGCAATAATACAAGCTTCGTTTTGCGTGCCGGGAACGGAGTCACCTAGTGCAG”, for which the binding signal is 3210 fluorescence intensity (a.u.).

As for “CGGTAGTATAAGGTTTATCTGTTTCCTGACGTTTGATTTGCGGAGTCACCTAGTGCAG”, the binding signal was 3600 fluorescence intensity (a.u.).

Regarding “TAAGCCCTATGGGCTTACAGCCCACGTGTCGGCCCAACTCCGGAGTCACCTAGTGCAG”, the binding signal is 9490 fluorescence intensity (a.u.).

Take “CACTTCTCCAGTAATGGAGGGATTGATCGGGGTGACGTGGCGGAGTCACCTAGTGCAG”: the binding signal was 34900 fluorescence intensity (a.u.).

“CCCTCATCGCCGGCCGGCCGTCGGACCTCCATGCCCCGGCCGGAGTCACCTAGTGCAG”: the binding signal was 4250 fluorescence intensity (a.u.).

For the sequence “GGCGAGGAGGTGTGCCACGTCAGGATTTTGCTACAGTATGCGGAGTCACCTAGTGCAG”, the binding signal is 11700 fluorescence intensity (a.u.).

On to “GCCATGTGGTTTAATAAAAGTCAAATCCTTGTTCTGATAACGGAGTCACCTAGTGCAG”, for which the binding signal was 3230 fluorescence intensity (a.u.).

On to “TTGCTCTTAGCAAACCAGATCGTGTCACCTGCTGGGGTTACGGAGTCACCTAGTGCAG”, for which the binding signal is 4520 fluorescence intensity (a.u.).

Regarding “AGCCGGAGCGGTCGAGCCGCCGCGGCCTCGTCGGCGTGGACGGAGTCACCTAGTGCAG”, the binding signal is 3950 fluorescence intensity (a.u.).

As to “ACACTACTGGCACCTACATACGTGGCGGGGCGCTCCGGTGCGGAGTCACCTAGTGCAG”, the binding signal was 6990 fluorescence intensity (a.u.).

For “GCAGAGTTTCCGGTTGCCACCGCACCCGTCATGCTTCTTCCGGAGTCACCTAGTGCAG”, the binding signal was 4120 fluorescence intensity (a.u.).

Turning to “CCACTGTTGCATGACAATAACATCATGTGAATCAGCACAGCGGAGTCACCTAGTGCAG”, the binding signal is 5860 fluorescence intensity (a.u.).

Take “TCAGACCGACAAGGCATTGCGTGGCACAGGTCGTACACTCCGGAGTCACCTAGTGCAG”: the binding signal is 5110 fluorescence intensity (a.u.).

As to “TTGTTTGCTTATACAGTGACTGTCCGTGCATTAGTGGAAACGGAGTCACCTAGTGCAG”, the binding signal is 4660 fluorescence intensity (a.u.).

Turning to “CCGCCATGCGCACAATCCACGTGTCACGTCACCCTCCTCACGGAGTCACCTAGTGCAG”, the binding signal is 21400 fluorescence intensity (a.u.).

In the case of “GCAATCCTTAACTCCTTCCCTGACGCAGCCTCCATGCATCCGGAGTCACCTAGTGCAG”, the binding signal was 3260 fluorescence intensity (a.u.).
